Measured values taken from paper PMC7119369.

By UniProt entry, the sequences of proteins in these tests, tags left out.
UniProt P31749: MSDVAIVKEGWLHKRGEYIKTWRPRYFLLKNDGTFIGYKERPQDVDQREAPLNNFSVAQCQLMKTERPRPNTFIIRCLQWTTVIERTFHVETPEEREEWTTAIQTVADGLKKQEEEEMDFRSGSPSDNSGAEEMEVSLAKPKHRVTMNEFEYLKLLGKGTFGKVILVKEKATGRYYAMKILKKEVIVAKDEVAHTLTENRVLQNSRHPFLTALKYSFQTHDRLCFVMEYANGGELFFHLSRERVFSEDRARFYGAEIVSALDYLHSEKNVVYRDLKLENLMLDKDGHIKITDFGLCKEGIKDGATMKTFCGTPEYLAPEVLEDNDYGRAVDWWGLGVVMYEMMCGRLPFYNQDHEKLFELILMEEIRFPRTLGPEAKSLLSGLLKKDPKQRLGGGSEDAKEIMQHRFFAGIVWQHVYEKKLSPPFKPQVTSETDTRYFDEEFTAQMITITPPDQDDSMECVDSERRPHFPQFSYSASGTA

Target: Myc-Akt1 (UniProt P31749)
Experiment: co-IP; HA-tagged CDKL3 constructs and Myc-Akt1 or Akt1 constructs expressed exogenously; total cell lysate on α-HA-agarose or α-myc-agarose at 4°C overnight; resin washed five times with TBS-T; Western blot; reverse IP also done for the Akt1 mapping

## HA-CDKL3 (cyclin-dependent kinase-like 3), full length (from UniProt Q8IVW4-2) (enzyme)
  binding: binds

These are yes or no findings as the source states them, for the method shown. In cells and extracts the contact can be indirect. Binding can be weak; no strength is given.
